# From PubChem BioAssay AID504834 (National Center for Advancing Translational Sciences (NCATS), 2011)
# Out of some 320,000 compounds screened, about 22,000 (6.9%) were called active. Inconclusive means that the source gave no clear call. Such entries were picked first, then a sample of the others. Calls follow the shape of the dose curve; as a rule, active = well fitted inhibition curve with a large enough effect; inconclusive = small, poorly fitted or top-dose-only effect, or another doubt; inactive = no such curve, though single readings can be large or run the other way. Where the call is inconclusive, the potency comes from a doubtful curve fit.
# Assay: Primary qHTS for delayed death inhibitors of the malarial parasite plastid, 96 hour incubation
# Settings: P. falciparum luciferase reporter growth; series mostly up to 28.7 µM
# Outline: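 Parasite growth measured via integrated firefly luciferase reporter in P. falciparum. Infected erythrocytes at 2% hematocrit, 0.05% parasitemia final were treated 96 hours at 37 C under 5% CO2, and luminescence was read.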
# Potency is read from the fitted curve at half-maximal effect.
row,Compound,Potency
1,Cc1c(C(=O)NC(=S)Nc2ccccc2N2CCCC2)cccc1[N+](=O)[O-],"inconclusive: 18.5 µM [inhibitor, single point]"
2,COc1ccc(CNC(NC(=O)c2ccccc2)(C(F)(F)F)C(F)(F)F)cc1,"inconclusive: 18.5 µM [inhibitor, single point]"
3,CCCCN(C(=O)c1ccc(-c2ccc([N+](=O)[O-])cc2)o1)c1c(N)n(CC(C)C)c(=O)[nH]c1=O,inactive
4,CCCCC(=O)Nc1ccc(C)c(S(=O)(=O)N2CCCCCC2)c1,"inconclusive: 18.5 µM [inhibitor, single point]"
5,CN(C)CCNCc1ccccc1OC1CCCC1,"inconclusive: 10.4 µM [inhibitor, partial curve, poor fit]"
6,COc1ccccc1OCC(=O)N/N=C1\CCCCc2ccccc21,"inconclusive: 8.28 µM [inhibitor, partial curve]"
7,CC[C@H](C)[C@H](NC(=O)c1ccccc1)C(=O)Nc1ccc(S(=O)(=O)Nc2cc(C)nc(C)n2)cc1,"inconclusive: 18.5 µM [inhibitor, single point]"
8,COc1ccc2c(c1)O[C@@H](c1ccc3c(c1)OCO3)[C@H](OC(=O)Nc1cc(OC)c(OC)c(OC)c1)C2=O,"inconclusive: 18.5 µM [inhibitor, single point]"
9,N#Cc1c(N2CCCC2)ccc(Br)c1Cl,inactive
10,Cn1nc([N+](=O)[O-])nc1Sc1cccc2cccnc12,inactive
11,Cc1ccc(-n2nnnc2Sc2nc([N+](=O)[O-])nn2C)cc1C,"inconclusive: 2.33 µM [inhibitor, single point]"
12,COc1cccc(C2(O)CCN(CC(=O)Nc3nc(C)cs3)CC2)c1,"inconclusive: 5.22 µM [inhibitor, partial curve]"
13,CCO[C@H]1OC(C(=O)Nc2ccccc2)=C[C@@H](c2csc3ccccc23)[C@@H]1CCCO,"inconclusive: 11.7 µM [inhibitor, single point]"
14,C[C@H]1c2cccc(O)c2C(O)=C2C(=O)[C@]3(O)C(O)=C(C(N)=O)C(=O)[C@@H](N(C)C)C3[C@@H](O)C21 (stereo not given in full),active: 0.415 µM
15,Cc1ccc(C2CCN(C(=S)NC(C)(C)C)C2)cc1 (stereo not given),"inconclusive: 13.1 µM [inhibitor, single point]"
16,S=c1[nH]nc(-c2cc(-c3ccccc3)n[nH]2)n1/N=C/c1ccc(Br)s1,inactive
17,O=[n+]1c2c(n([O-])c3cc(F)c(N4CCCC4)cc31)CCCC2,"inconclusive: 0.0657 µM [inhibitor, full curve, poor fit]"
18,CCN(CC)S(=O)(=O)c1ccc(Cc2ncc(C(F)(F)F)cc2Cl)s1,"inconclusive: 2.08 µM [inhibitor, full curve]"
19,COc1ccc(NC(=O)CN(C)C(=O)c2ccc(OCc3ccccc3)c(OC)c2)cc1,"inconclusive: 13.1 µM [inhibitor, single point]"
20,CCO[C@H]1OC(C(=O)N2CCN(Cc3ccc4c(c3)OCO4)CC2)=C[C@@H](c2cn(C(C)=O)c3ccccc23)[C@@H]1CCCO,active: 7.38 µM
21,NS(=O)(=O)c1ccc(NC(=S)Nc2nn(Cc3ccc(Cl)cc3Cl)cc2Cl)cc1,"inconclusive: 8.28 µM [inhibitor, partial curve, poor fit]"
22,CCCc1cc(=O)oc2cc(OCC(=O)NCCCn3ccnc3)ccc12,inactive
23,COc1ccc(NS(=O)(=O)c2cc(NC(=O)c3ccncc3)ccc2N2CCOCC2)cc1,"inconclusive: 18.5 µM [inhibitor, single point]"
24,CCCCNC(=O)[C@@H]1CSC2c3ccccc3C(=O)N21 (stereo not given in full),inactive

# 3 entries drawn at random from the list so far, as already listed:
row,Compound,Potency
3,CCCCN(C(=O)c1ccc(-c2ccc([N+](=O)[O-])cc2)o1)c1c(N)n(CC(C)C)c(=O)[nH]c1=O,inactive
23,COc1ccc(NS(=O)(=O)c2cc(NC(=O)c3ccncc3)ccc2N2CCOCC2)cc1,"inconclusive: 18.5 µM [inhibitor, single point]"
8,COc1ccc2c(c1)O[C@@H](c1ccc3c(c1)OCO3)[C@H](OC(=O)Nc1cc(OC)c(OC)c(OC)c1)C2=O,"inconclusive: 18.5 µM [inhibitor, single point]"

# Going on with the list:

row,Compound,Potency
1,CCCCNC(=O)CCn1nc(-c2ccc(Cl)cc2)c2ccccc2c1=O,"inconclusive: 14.7 µM [inhibitor, single point]"
2,CCOc1cc(C2C3=C(CC(C)(C)CC3=O)Nc3n[nH]c(C)c32)ccc1O (stereo not given),inactive
3,Cc1ccc2nc3c(cc(C(=O)NC4CCS(=O)(=O)C4)n3Cc3ccccc3)c(=O)n2c1 (stereo not given),inactive
4,c1ccc(COc2ccc(CNCc3cccnc3)cc2)cc1,"inconclusive: 4.15 µM [inhibitor, single point]"
5,CC12CCC(=O)N1C(C(=O)N1CCN(S(=O)(=O)c3cccc(C(F)(F)F)c3)CC1)CS2 (stereo not given),inactive
6,CCCOc1cccc(-c2cc(C(=O)NN)c3ccccc3n2)c1,"inconclusive: 10.4 µM [inhibitor, single point]"
7,Cc1ccc(/C(O)=C2/C(=O)C(=O)N(CCN3CCOCC3)C2c2cccnc2)cc1 (stereo not given),"inconclusive: 11.7 µM [inhibitor, single point]"
8,COc1cc(CCC(=O)NNC(=O)c2cccc(Cl)c2)cc(OC)c1OC,inactive
9,COc1ccccc1NS(=O)(=O)c1cc(NC(=S)Nc2cc(C)cc(C)c2)ccc1Cl,"inconclusive: 18.5 µM [inhibitor, single point]"
10,O=C(NC(=S)N(CCCCO)C1CCCCC1)c1sc2ccccc2c1Cl,"inconclusive: 18.5 µM [inhibitor, partial curve, poor fit]"
11,O=C(CSc1ccc(-c2cccnc2)nn1)Nc1ccccc1,active: 11.7 µM
12,Cc1cccc2c1CC(C)(C)N=C2C1=C(O)CC(C)(C)CC1=O,active: 13.1 µM
13,COc1ccccc1N1CCN(C2=NS(=O)(=O)c3ccccc32)CC1,inactive
14,CNC(=S)N/N=C/c1cn(Cc2ccc(F)cc2)c2ccccc12,"inconclusive: 18.5 µM [inhibitor, partial curve, poor fit]"
15,CCCCn1c(N)c(N(CCOC)C(=O)C(C)N2C(=O)c3ccccc3C2=O)c(=O)[nH]c1=O (stereo not given),inactive
16,CN(CC(=O)NCCc1ccc(F)cc1)Cc1cccs1,inactive
17,Cc1noc(C)c1CSCC(=O)Nc1cc(S(=O)(=O)N2CCCCC2)ccc1OC(C)C,"inconclusive: 4.65 µM [inhibitor, partial curve]"
18,CC1CCC(C(=O)NC(C(=O)N2CCc3ccccc3C2)C(C)C)CC1 (stereo not given),"inconclusive: 18.5 µM [inhibitor, single point]"
19,Cc1cc(NC(=O)C2CCC2)n(-c2ccccn2)n1,inactive
20,CCC(CO)NCc1ccc(OCC(O)c2ccccc2)c(OC)c1 (stereo not given),inactive
21,O=C(Nc1cccc([N+](=O)[O-])c1)c1ccc2nsnc2c1,active: 13.1 µM
22,CCOC(=O)N1CCN(CC(=O)c2ccc(O)c(C)c2O)CC1,inactive
23,CCOc1ccccc1N(CC(=O)N/N=C/c1cc(Br)ccc1OC)S(C)(=O)=O,inactive
24,CCCN1C(=O)c2cc(C(=O)NC3CCCC3)ccc2C1O (stereo not given),"inconclusive: 18.5 µM [inhibitor, single point]"

row,Compound,Potency
1,COc1ccc(Cl)cc1NC(=O)CN(C)CC(=O)Nc1ccccc1C(F)(F)F,"inconclusive: 18.5 µM [inhibitor, single point]"
2,Cc1cccc(C(=O)N2CCN(c3ccccn3)CC2)c1,inactive
3,COc1cccc(/C=N\NS(=O)(=O)c2ccccc2)c1OC,"inconclusive: 13.1 µM [inhibitor, single point]"
4,CCn1c(CNC(=O)COc2ccc(C(C)C)cc2)nnc1SCC(=O)Nc1ccccc1C(C)C,"inconclusive: 10.4 µM [inhibitor, single point]"
5,COc1ccc(NS(=O)(=O)c2cccc(NC(=O)C34CCC(CC3)C4)c2)cc1,"inconclusive: 18.5 µM [inhibitor, single point]"
6,COC(Cn1c2c(c3cc(C)ccc31)CCCC2NCc1ccccc1)OC (stereo not given),"inconclusive: 11.7 µM [inhibitor, partial curve]"
7,CC(C)(C)OC(=O)NCC1CCN(S(=O)(=O)Cc2ccccc2)CC1,"inconclusive: 10.4 µM [inhibitor, single point]"
8,Nc1ccc(SC(F)(F)F)cc1C(=O)c1ccccc1,"inconclusive: 10.4 µM [inhibitor, partial curve, poor fit]"
9,O=c1cc(CSc2nnc(Nc3ccccc3F)s2)nc2sccn12,"inconclusive: 10.4 µM [inhibitor, partial curve]"
10,COc1ccc(S(=O)(=O)N2CCC(C(=O)NC3CCCCC3)CC2)cc1OC,inactive
11,Cc1ccc(S(=O)(=O)N2CCCCC2)cc1C(=O)NCC1CCCO1 (stereo not given),"inconclusive: 11.7 µM [inhibitor, single point]"
12,CCOc1ccc(N(CC(=O)Nc2c(C)n(C)n(-c3ccccc3)c2=O)S(=O)(=O)c2ccc(F)cc2)cc1,"inconclusive: 18.5 µM [inhibitor, single point]"
13,COc1cccc(NC(=S)N(CCc2c(C)[nH]c3ccccc23)Cc2cccs2)c1,"inconclusive: 18.5 µM [inhibitor, single point]"
14,NCC(CC(=O)O)c1ccc(Cl)cc1 (stereo not given),"inconclusive: 5.36 µM [inhibitor, partial curve, poor fit]"
15,CCCCCC1CCC(c2ccc(C(N)=O)cc2)CC1 (stereo not given),active: 2.94 µM
16,C=CCOc1ccc(CNCCc2ccc(S(N)(=O)=O)cc2)cc1,inactive
17,O=C(CCS(=O)(=O)Cc1ccccc1F)N1CCc2ccccc2C1,inactive
18,COCCCn1c(SCc2cccc(OC)c2)nc2cc(OC)c(OC)cc2c1=N,"inconclusive: 13.1 µM [inhibitor, partial curve, poor fit]"
19,OCC1CCCN(c2nc(CN3CCCCC3)nc3scc(-c4ccccc4)c23)C1 (stereo not given),"inconclusive: 13.1 µM [inhibitor, single point]"
20,CCOC(=O)C[n+]1ccc2c([nH]c3ccccc32)c1C,active: 10.4 µM
21,CN(CC(=O)NCCc1ccc(F)cc1)Cc1cccc(Cl)c1,inactive
22,COCCCNC(=O)c1cc(C)nc2ccc(F)cc12,"inconclusive: 0.465 µM [inhibitor, partial curve, poor fit]"
